Experimental data published in patent US20030003461.
For at least one entry, the source does not settle the construct or the ends of the probe. A negative result means that nothing was seen under these conditions.

Chains of the proteins cited; added tags and fusions are not shown. Chains listed by the source or under a name are the forms on record and can include a tag or linker. Residues count along the entry.
UniProt P01137, 279-390: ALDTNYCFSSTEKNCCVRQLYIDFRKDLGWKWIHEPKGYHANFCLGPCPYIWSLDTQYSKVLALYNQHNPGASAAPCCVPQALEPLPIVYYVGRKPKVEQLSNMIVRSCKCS
VEGF (Homo sapiens), one chain, as listed by the source: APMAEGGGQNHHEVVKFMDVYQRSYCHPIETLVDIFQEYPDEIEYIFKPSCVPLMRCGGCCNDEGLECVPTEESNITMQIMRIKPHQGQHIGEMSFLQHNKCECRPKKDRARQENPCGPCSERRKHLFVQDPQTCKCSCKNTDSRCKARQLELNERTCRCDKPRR

How the values were obtained:
[1] = system: VEGF (Homo sapiens); assay: filter binding; details: 2'-F pyrimidines, purified recombinant protein, protein details: recombinant human, R&D Systems
[2] = target: TGFβ1 (Homo sapiens) (UniProt P01137); assay: filter binding; details: 2'-F pyrimidines, purified recombinant protein, protein details: recombinant human, R&D Systems; for binding result: NB
[3] = phenotype 5: non-binding with or without fixed sequences
[4] = 3' fixed sequence removed, plateau 30%
[5] = 3' fixed sequence removed, plateau 35%
[6] = fixed sequences removed, plateau 10%

“GGGAGGGACACUGGUUCCGAAGUAUUGUCUUUGUCCUCACACAGACGACUCGCCCGA [T2-22]”: binds ([1]; phenotype 3: gains affinity when 3' fixed sequence removed).
“GGGAGGACGAUGCGGUGAUCGAUUUCCUGGUCUGUUCUCCCUCCUCAGACGACUCGCCCGA [VEGF hyb 16a]”: no binding [1, 3].
“GGGAGGACGAUGCGGUUGAAUAUUUCUCGGUCGUGAUUCCCGCCUCAGACGACUCGCCCGA [VEGF hyb 3b]”: no binding [1, 3].
With “GGGAGGGUUAACCGUAAAGACGGCAUUAUGUAGUCCCCAGACGACUCGCCCGA [30NtruNc 36]” the Kd ([2]; 3' fixed sequence removed, plateau 40%) was 31 nM.
Work on “GGGAGGGUUCUGGAAUUUUUGGUUUAGCCGUACGCCAGACGACUCGCCCGA [30NtruNc 2]” yielded a Kd ([2]; 3' fixed sequence removed, plateau 37%) of 1.2 nM.
In the case of “GGGAGGGUUAACCGUUAAGACGGCGUUAUUUUGUCCCCAGACGACUCGCCCGA [30NtruNc 24]”, the Kd [2, 4] is reported as 2.5 nM.
“GGGAGGACGAUGCGGAGUUUCAGGAUAUGUUGUGUGGUCGUUCUUUUUCCUCCCCAGACGACUCGCCCGA [hyb ligand 66]”: no binding ([2]; fixed sequences removed).
In the case of “GGGAGCGGGAAUUUUUGGUAAAGCCGUAUGCCUCGCCACAGACGACUCGCCCGA [30NtruNc 19]”, the Kd [2, 5] is reported as 0.56 nM.
“GGGAGGACGAUGCGGAUCUGAAUUUAUUCGUCUACAGUUACAGCUGGGCCUUCCGCAGACGACUCGCCCGA [hyb ligand 1,12]” gave a Kd [2, 6] of 1 nM.
“GGGAGGACGAUGCGGUAGUGACGAAUUUUUGCUGGAUCUGGUUUUGAACCGUCCCCAGACGACUCGCCCGA [hyb ligand 20]”: no binding ([2]; fixed sequences removed).
“GGGAGGGUUAACCGUUAAGACGGCGUCAUUUUGUCCCCAGACGACUCGCCCGA [30NtruNc 1]” gave a Kd [2, 4] of 0.081 nM.
In the case of “GGGAGGACGAUGCGGGUGCCUUUUGCCUAGGUUGUGAUUUGUAACCUUCUGCCCAGACGACUCGCCCGA [hyb ligand 70]”, the Kd ([2]; fixed sequences removed, plateau 25%) is reported as 0.2 nM.
In the case of “GGGAGGACGAUGCGGUGUCUUUAGCCUACAGUUGACUGUUCAAUUGUUCUGCCGCAGACGACUCGCCCGA [hyb ligand 52]”, the Kd ([2]; fixed sequences removed, plateau 30%) is reported as 1 nM.
“GGGAGGGGAAUUUUUGGUAAAGCCGUAUGCCUCGCCAGACGACUCGCCCGA [30NtruNc 20]” showed a Kd ([2]; 3' fixed sequence removed, plateau 25%) of 0.34 nM.
In the case of “GGGAGGACGAUGCGGGGUGCCUGUAGUCUUUGCAUCUUAUAAAUGCAAUCUGCCCCAGACGACUCGCCCGA [hyb ligand 2,7,44]”, the Kd ([2]; fixed sequences removed by RNaseH, plateau 10%) is reported as 4 nM.
“GGGAGGGUUAACCGUUAAGACGGCUUCAUUUUGUCCCCAGACGACUCGCCCGA [30NtruNc 8]”: no binding ([2]; 3' fixed sequence removed).
Sequence “GGGAGGACGAUGCGGAUCACUAGGCUCAUUUGUGAGCCGUUAUUCCUUGACUCCAGACGACUCGCCCGA [hyb ligand 67]” has a Kd ([2]; fixed sequences removed, plateau 8%) of 0.1 nM.
“GGGAGGACGAUGCGGUUAGGUCGGGCUCAACACCGCUAAAAAAUUCUUCGUUCCCCCAGACGACUCGCCCGA [hyb ligand 49]”: no binding ([2]; fixed sequences removed).
“GGGAGGACGAUGCGGAUCUGAAUUUAUUCGUCUACAGUUACGGCUGGGCCUUCCGCAGACGACUCGCCCGA [hyb ligand 41]” showed a Kd [2, 6] of 0.6 nM.
With “GGGAGAGGGAUCUGGAAUUUUUGGUUUAGCCGUACGCCAGACGACUCGCCCGA [30NtruNc 4]” the Kd ([2]; 3' fixed sequence removed, plateau 20%) was 0.088 nM.
“GGGAGUGGGAAUUUUUGGUAAAGCCGUAUGCCUCGCCAGACGACUCGCCCGA [30NtruNc 12]” gave a Kd [2, 5] of 0.88 nM.
“GGGAGGACGAUGCGGCAGCUCACUUAUAUUUCCGUCCAAUUCCUUCUUUACUGCCCAGACGACUCGCCCGA [hyb ligand 34]”: no binding ([2]; fixed sequences removed).
With “GGGAGGGGAGCAGACGACUCGCCCGAACUGGGAAUUUUUGGUUGAGCCGUAUGCCCAGACGACUCGCCCGA [AG6]” the Kd ([2]; 3' fixed sequence removed, biphasic, plateau 12%, low-affinity Kd 0.2 nM, plateau 25%) was 0.004 nM.
“GGGAGGACGAUGCGGUUAGUUCGGGCUCAACACCGCUAAGAUUCUUCGUUCCCCCAGACGACUCGCCCGA [hyb ligand 22,28]”: no binding ([2]; fixed sequences removed).
“GGGAGGACGAUGCGGUAGUGAUGAACUUUUGCUGGAUCUGGUUUUGAGCCGUCCCCAGACGACUCGCCCGA [hyb ligand 3]”: no binding ([2]; fixed sequences removed).
For “GGGAGGACGAUGCGGGGUGCCUUUAGUCUUUGCAUCUUAUAAAUGCAAUCUGCCCCAGACGACUCGCCCGA [hyb ligand 18]”, the Kd ([2]; fixed sequences removed, plateau 5%) was 0.2 nM.
For “GGGAGGACGAUGCGGUGUUUGUGCUACGACCUACAUUCGUUGGAAUGUUCUGCCGCAGACGACUCGCCCGA [hyb ligand 23]”, the Kd [2, 6] was 0.4 nM.
“GGGAGGACGAUGCGGUAGUGAUGAAUUUUUGCUGGAUCUGGUUUUGAACCGUCCCCAGACGACUCGCCCGA [hyb ligand 62]”: no binding ([2]; fixed sequences removed).
